Results deposited as PubChem BioAssay AID1224830 (NIAID, 2016)
Purpose: 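Regulators of TLR4 signalling towards TNF-alpha in macrophage-like cells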 (primary screen). System: human THP-1 monocytic leukaemia cells, TNF dual-luciferase reporter clone, PMA-differentiated to macrophage-like cells. Knock-down reagent: siRNA pool against human genes, 50 nM. Duration: LPS for 4 h, given about 3 days after siRNA transfection. Treatment: bacterial LPS (TLR4 ligand), 10 ng/ml. Measured: 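Ratio of firefly to renilla light, scaled to the plate median and expressed as a robust z-score per replicate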. Scale: TNF reporter robust z-score: higher = stronger TNF reporter response to LPS. Active means: 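Each well counts as active if its z-score is over 2.8 or under -1.5; controls are left without a call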.
The whole screen tested about 18,000 reagents; below is an unselected part. Of all reagents, about 2,900 (16%) got an active call. 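Calls are made per well; low scores hint the gene aids the LPS response, high scores that it dampens it.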 Entries without a mark were called inactive. Repeated entries: four replicate wells of each siRNA pool.

TNNI1 (troponin I1, slow skeletal type) — TNF reporter robust z-score = -0.64
TNNI1 (troponin I1, slow skeletal type) — TNF reporter robust z-score = 0.42
TNNI1 (troponin I1, slow skeletal type) — TNF reporter robust z-score = 0.34
TNNI1 (troponin I1, slow skeletal type) — TNF reporter robust z-score = 0.23
UNC119B (unc-119 lipid binding chaperone B) — TNF reporter robust z-score = -1.47
UNC119B (unc-119 lipid binding chaperone B) — TNF reporter robust z-score = -1.24
UNC119B (unc-119 lipid binding chaperone B) — TNF reporter robust z-score = -0.5
UNC119B (unc-119 lipid binding chaperone B) — TNF reporter robust z-score = -1.43
EPC2 (enhancer of polycomb 2) — TNF reporter robust z-score = 1.06
EPC2 (enhancer of polycomb 2) — TNF reporter robust z-score = -0.61
EPC2 (enhancer of polycomb 2) — TNF reporter robust z-score = 1.11
EPC2 (enhancer of polycomb 2) — TNF reporter robust z-score = 0.87
ARID5A (AT-rich interaction domain 5A) — TNF reporter robust z-score = -0.54
ARID5A (AT-rich interaction domain 5A) — TNF reporter robust z-score = -0.4
ARID5A (AT-rich interaction domain 5A) — TNF reporter robust z-score = 0.08
ARID5A (AT-rich interaction domain 5A) — TNF reporter robust z-score = -0.03
GRAMD1B (GRAM domain containing 1B) — TNF reporter robust z-score = 1.53
GRAMD1B (GRAM domain containing 1B) — TNF reporter robust z-score = 0.96
GRAMD1B (GRAM domain containing 1B) — TNF reporter robust z-score = 2.38
GRAMD1B (GRAM domain containing 1B) — TNF reporter robust z-score = 0.52
USH1G (USH1 protein network component sans) — TNF reporter robust z-score = 3.1 (active)
USH1G (USH1 protein network component sans) — TNF reporter robust z-score = 1.38
USH1G (USH1 protein network component sans) — TNF reporter robust z-score = 0.98
USH1G (USH1 protein network component sans) — TNF reporter robust z-score = 1.04
ZNF137P (zinc finger protein 137, pseudogene) — TNF reporter robust z-score = 0.49
ZNF137P (zinc finger protein 137, pseudogene) — TNF reporter robust z-score = 1.79
ZNF137P (zinc finger protein 137, pseudogene) — TNF reporter robust z-score = 1.12
ZNF137P (zinc finger protein 137, pseudogene) — TNF reporter robust z-score = 1.99
PTCH1 (patched 1) — TNF reporter robust z-score = -0.28
PTCH1 (patched 1) — TNF reporter robust z-score = 0.02
PTCH1 (patched 1) — TNF reporter robust z-score = -0.17
PTCH1 (patched 1) — TNF reporter robust z-score = 1.2
